Experimental data: patent US8217048B2, “Inhibitors of serine proteases, particularly HCV NS3-NS4A protease” (Vertex Pharmaceuticals Incorporated, priority 2003, dated 2012)
Some entries share one result that the patent states for a list of compounds.

System: Cells containing hepatitis C virus (HCV) replicon
Experiment: HCV Replicon Cell Assay (Example 4)
Assay type: cell-based
Conditions: tested according to Example 4 (cell); 50% inhibition of HCV RNA level, 48-hour incubation
Protocol: HCV Replicon Cell Assay Protocol
Cells containing hepatitis C virus (HCV) replicon were maintained in DMEM containing 10% fetal bovine serum (FBS), 0.25 mg per ml of G418, with appropriate supplements (media A).
On day 1, replicon cell monolayer was treated with a trypsin:EDTA mixture, removed, and then media A was diluted into a final concentration of 100,000 cells per ml wit. 10,000 cells in 100 ul were plated into each well of a 96-well tissue culture plate, and cultured overnight in a tissue culture incubator at 37° C.
On day 2, compounds (in 100% DMSO) were serially diluted into DMEM containing 2% FBS, 0.5% DMSO, with appropriate supplements (media B). The final concentration of DMSO was maintained at 0.5% throughout the dilution series.
Media on the replicon cell monolayer was removed, and then media B containing various concentrations of compounds was added. Media B without any compound was added to other wells as no compound controls.
Cells were incubated with compound or 0.5% DMSO in media B for 48 hours in a tissue culture incubator at 37° C. At the end of the 48-hour incubation, the media was removed, and the replicon cell monolayer was washed once with PBS and stored at −80° C. prior to RNA extraction.
Culture plates with treated replicon cell monolayers were thawed, and a fixed amount of another RNA virus, such as Bovine Viral Diarrhea Virus (BVDV) was added to cells in each well, RNA extraction reagents (such as reagents from RNeasy kits) were added to the cells immediately to avoid degradation of RNA. […]
A Taqman real-time RT-PCR quantification assay was set up with two sets of specific primers and probe. […] Total RNA extractants from treated HCV replicon cells was added to the PCR reactions for quantification of both HCV and BVDV RNA in the same PCR well. […] The level of HCV RNA in each well was calculated according to a standard curve run in the same PCR plate. The percentage of inhibition or decrease of HCV RNA level due to compound treatment was calculated using the DMSO or no compound control as 0% of inhibition. […]

SMILES | IC50
CCC[C@H](NC(=O)[C@@H]1C[C@@H](Oc2cccc(C(=O)NC)c2)CN1C(=O)[C@@H](NC(=O)[C@@H](NC(=O)c1cnccn1)C1CCCCC1)C(C)(C)C)C(=O)C(=O)NC1CC1 [Compound 46] | > 1000 nM
CCC[C@H](NC(=O)[C@@H]1C[C@@H](Oc2cccc(S(=O)(=O)NC)c2)CN1C(=O)[C@@H](NC(=O)[C@@H](NC(=O)c1cnccn1)C1CCCCC1)C(C)(C)C)C(=O)C(=O)NC1CC1 [Compound 47] | > 1000 nM
CCC[C@H](NC(=O)[C@@H]1C[C@@H](Oc2ccc(S(=O)(=O)NC)cc2)CN1C(=O)[C@@H](NC(=O)[C@@H](NC(=O)c1cnccn1)C1CCCCC1)C(C)(C)C)C(=O)C(=O)NC1CC1 [Compound 48] | > 1000 nM
